The text below walks through data of publication PMC3517560.

The chains behind the UniProt entries cited, without tags or fusion partners.
UniProt Q9JI91: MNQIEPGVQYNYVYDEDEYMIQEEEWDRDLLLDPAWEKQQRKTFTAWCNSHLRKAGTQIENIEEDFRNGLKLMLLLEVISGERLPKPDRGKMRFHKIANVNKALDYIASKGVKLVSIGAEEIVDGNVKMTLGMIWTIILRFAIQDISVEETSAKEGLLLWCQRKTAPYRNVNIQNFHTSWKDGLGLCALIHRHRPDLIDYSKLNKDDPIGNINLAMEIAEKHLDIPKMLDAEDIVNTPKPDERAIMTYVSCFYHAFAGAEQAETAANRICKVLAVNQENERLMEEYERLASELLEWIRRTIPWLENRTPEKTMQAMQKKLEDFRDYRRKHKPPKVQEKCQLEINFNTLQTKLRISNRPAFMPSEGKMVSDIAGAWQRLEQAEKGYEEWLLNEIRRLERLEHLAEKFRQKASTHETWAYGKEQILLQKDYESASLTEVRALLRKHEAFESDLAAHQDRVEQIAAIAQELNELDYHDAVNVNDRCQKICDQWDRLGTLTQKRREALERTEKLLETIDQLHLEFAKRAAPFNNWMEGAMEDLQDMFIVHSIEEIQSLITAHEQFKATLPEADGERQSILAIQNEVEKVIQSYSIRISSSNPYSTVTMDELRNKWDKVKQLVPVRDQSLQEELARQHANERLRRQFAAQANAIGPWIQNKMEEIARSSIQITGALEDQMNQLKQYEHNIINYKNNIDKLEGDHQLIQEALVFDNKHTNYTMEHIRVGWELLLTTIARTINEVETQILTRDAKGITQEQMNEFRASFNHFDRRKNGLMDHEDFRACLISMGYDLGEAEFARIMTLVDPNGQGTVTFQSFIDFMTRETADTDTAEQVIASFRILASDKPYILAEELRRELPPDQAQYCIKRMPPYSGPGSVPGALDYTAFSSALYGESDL

The target in the assay is LRRC10, endogenous in mouse heart (mouse (endogenous in heart)) (UniProt Q8K3W2). Put plainly: co-IP; one-two month old mouse hearts homogenised in IP buffer (20 mM Tris HCl pH 8.0, 100 mM NaCl, 1 mM EDTA) with 1% triton X-100, 1 mM DTT, protease inhibitors; lysates incubated with preimmune serum or an LRRC10 antibody, Protein A agarose beads; immunoblot; Lrrc10-/- heart extracts as control.

These are yes or no findings as the source states them, for the method shown. In cells and extracts the contact can be indirect. Some entries that bind do so weakly or less than the wild type.

Regarding “α-actinin, endogenous in mouse heart (from UniProt Q9JI91 1-894)”, the binding result is recorded as “binds”.
